Reference: publication PMC6646405, “A quantitative, high-throughput method identifies protein–glycan interactions via mass spectrometry” (Communications Biology, 2019)
The source gives many values for each of these; only a part stands here.

Amino acid sequences for entries named in this document (tags omitted). A change or cut given only in a name is not applied to a line headed by its entry.
UniProt Q9Y3R4: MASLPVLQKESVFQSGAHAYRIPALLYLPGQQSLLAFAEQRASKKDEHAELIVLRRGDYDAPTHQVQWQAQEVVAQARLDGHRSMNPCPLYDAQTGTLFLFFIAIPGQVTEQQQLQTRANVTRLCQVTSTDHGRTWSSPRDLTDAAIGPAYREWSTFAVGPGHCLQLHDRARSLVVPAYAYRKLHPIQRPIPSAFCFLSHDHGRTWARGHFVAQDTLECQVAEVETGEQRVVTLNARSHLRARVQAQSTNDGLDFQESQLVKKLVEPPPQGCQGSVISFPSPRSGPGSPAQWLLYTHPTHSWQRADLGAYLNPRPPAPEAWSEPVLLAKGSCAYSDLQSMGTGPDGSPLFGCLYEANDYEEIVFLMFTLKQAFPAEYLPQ

Molecular target: T1, human neuraminidase 2 (NEU2) (Homo sapiens, UniProt Q9Y3R4)
T1 construct: made in house
Assay: Time-resolved CUPRA enzyme kinetics, NEU2
Type: biochemical
Protocol: To apply CUPRA in this capacity, two or more substrates of interest are introduced, as their corresponding OS^mod, to a solution containing the desired CAZyme. Changes in substrate concentrations, as well as those of the corresponding enzyme products, are determined from the relative abundances of OS^mod-bound ^UniPproxy measured by time-resolved ESI-MS. Because of the manner in which the substrate and product concentrations are measured, the assay is insensitive to differences in their ESI-MS response factors and, consequently, independent of the nature of the chemical modification catalyzed by the enzyme. As a result, time-resolved CUPRA eliminates the need for calibration curves or internal standards, which are generally required with ESI-MS-based enzyme kinetics assays.
Two glycosyl hydrolases, human neuraminidase 2 (NEU2) and 3 (NEU3), which preferentially cleave α2-3-linked Neu5Ac residues, were used to illustrate the ease with which time-resolved CUPRA can establish substrate specificities. We incubated libraries of the Neu5Ac-containing OS^mod with NEU2 (Fig. 2d) or NEU3 (Fig. 2e) and monitored their conversion to the corresponding desialylated OS^mod products at pH 7 and 25 °C. […] All OS^mod containing terminal α2-3-linked Neu5Ac were substrates of NEU3, with initial rates that are 10–50% that of HMO03. […] Substrates containing branching after the α2-3-linkage were poor substrates for both enzymes. […] We note, however, that previous reports have examined NEU2 and NEU3 activity under more acidic solution conditions. Furthermore, the nature of the substrate aglycone may influence the activity of human neuraminidases.
The time-resolved CUPRA measurements were performed by manually mixing aliquots of stock solutions of NEU2 or NEU3 (final concentration 2 µM), ^UniPproxy (5 µM), substrates (Si, 5 µM each) and CUPRA linker (5 µM), all in 200 mM aqueous ammonium acetate at pH 7 and 25 °C. ESI mass spectra were collected continuously at the rate of 30 scans min^−1 starting at 3 min after mixing. The adduct distributions measured for the ^UniPproxy – CUPRA linker complex ions were used to apply SWARM. The time-dependent fractional abundance of a given substrate (FS,i) (Eq. 12), which was used to represent reaction progress, was calculated from the total Ab of ^UniPproxy bound to Si and corresponding product (Pi), corrected for Si consumed prior to data acquisition.12 FS,i=Ab^UniPproxySi/Ab^UniPproxySi+Ab^UniPproxyPi

CC(=O)N[C@H]1[C@H](O[C@@H]2[C@H](O[C@]3(C(=O)O)C[C@H](O)[C@@H](NC(C)=O)[C@H]([C@H](O)[C@@H](CO)O[C@]4(C(=O)O)C[C@H](O)[C@@H](NC(C)=O)[C@H]([C@H](O)[C@H](O)CO)O4)O3)[C@@H](O)[C@H](O[C@H]3[C@H](O)[C@@H](O)[C@H](N(CCOCCOCCNC(=O)[C@H](Cc4ccccc4)NC(=O)[C@H](Cc4ccccc4)NC(=O)CCCC(=O)NCCc4ccc(S(N)(=O)=O)cc4)C(C)=O)O[C@@H]3CO)O[C@@H]2CO)O[C@H](CO)[C@H](O)[C@@H]1O [GA10, GalNAcβ1-4(Neu5Acα2-8 Neu5Acα2-3)Galβ1-4Glc-CL]
relative abundance of OSmod substrate (Fig2d time course) (time 5 min): 0.9096
relative abundance of OSmod substrate (Fig2d time course) (time 6 min): 0.9066
relative abundance of OSmod substrate (Fig2d time course) (time 85 min): 0.9109
relative abundance of OSmod substrate (Fig2d time course) (time 86 min): 0.9081
relative abundance of OSmod substrate (Fig2d time course) (time 87 min): 0.9182
relative abundance of OSmod substrate (Fig2d time course) (time 88 min): 0.912
relative abundance of OSmod substrate (Fig2d time course) (time 89 min): 0.9104
relative abundance of OSmod substrate (Fig2d time course) (time 90 min): 0.8989
relative abundance of OSmod substrate (Fig2d time course) (time 91 min): 0.9136
relative abundance of OSmod substrate (Fig2d time course) (time 92 min): 0.9082
relative abundance of OSmod substrate (Fig2d time course) (time 93 min): 0.9116
relative abundance of OSmod substrate (Fig2d time course) (time 94 min): 0.9141
relative abundance of OSmod substrate (Fig2d time course) (time 95 min): 0.9105
relative abundance of OSmod substrate (Fig2d time course) (time 96 min): 0.9107
